The list shows a part of the results. Shown are side measurements of this screen, not its main read-out; they come without a call. Compounds called inactive in the main read-out are mostly missing here. Potencies come from curve fits of mixed quality, noted in brackets.

This experiment in a line: qHTS Assay for Lipid Storage Modulators in Drosophila S3 Cells.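 As to cell number change: cells counted by Cell Tracker Red CMTPX staining in the red channel.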 To be noted: BODIPY lipid droplet fluorescence, 18-24 h; for cell number change: measured here: cell count max response, cells fed with added oleic acid. In short, it runs like this: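 Drosophila S3 cells loaded with oleic acid (400 uM, as added) and compounds at several concentrations; lipid droplets imaged by 488-nm laser-scanning cytometry, 500–530 nm intensity and object ratio to cell channel. Percent activity normalized to 20 uM Triacsin C.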
(In general: qHTS replaces the single test concentration by a dilution series.)

Where [1] appears, read: measured here: cell number channel AC50, cells fed with added oleic acid.
Setting [2] is: measured here: lipid fluorescence (Fed channel) AC50, cells fed with added oleic acid.

By AC50 is commonly meant the concentration giving half of the maximal activity seen. With `Cc1cc(OCC(=O)Nc2ccc(N3CCCC3)cc2)cc(C)c1Cl`, the cell number change worked out at 82.1%. Further, under setting [1], the AC50 is 29.1 µM [rising, single point]. Besides, under setting [2], the AC50 is 6.51 µM [falling, single point].

Consider `C=CCN(c1cccc(C(F)(F)F)c1)S(=O)(=O)c1cccc(C(=O)OCC(=O)Nc2ccccc2)c1`, for which the cell number change worked out at 58%. For the same compound, under setting [1], the AC50 is 29.1 µM [rising, single point].

With `O=S(=O)(NCCSc1ccccn1)c1ccc(Cl)cc1`, the cell number change was found to be 35.2%. Moreover, under setting [1], the half-maximal activity concentration (AC50) is 29.1 µM [rising, single point]. The AC50 under setting [2] is 0.184 µM [falling, full curve, poor fit].

`CCOC(=O)N1CCN(C(=O)C2CCN(S(=O)(=O)c3c(C)cc(C)cc3C)CC2)CC1`: the cell number change is -17.4%. Moreover, the AC50 under setting [1] is 0.092 µM [falling, full curve, poor fit]. For the same compound, the AC50 under setting [2] was 1.64 µM [falling, partial curve].

As for `O=C(Nc1ccc2ccccc2c1)Nc1ccc2snnc2c1`, the cell number change is -49.4%. Further, the AC50 under setting [1] was 3.66 µM [falling, full curve]. Besides, under setting [2], the half-maximal activity concentration (AC50) is 18.4 µM [falling, partial curve].

In the case of `O=c1[nH]c(SCc2nc3ccccc3c(=O)n2-c2ccccc2C(F)(F)F)nc2ccccc12`, the cell number change turned out to be 1.43%. Besides, the half-maximal activity concentration (AC50) under setting [2] is 29.1 µM [rising, single point].

Consider `Cc1ccc(C)c(N2CCN(C(=O)CCS(=O)(=O)c3cccc4nonc34)CC2)c1`, for which the AC50 under setting [2] is 0.146 µM [rising, full curve, poor fit].

As to `Cc1ccc(NS(=O)(=O)c2cccc(C(=O)N3CCCC(C)C3)c2)cc1` (centres undefined), the cell number change was -9.5%. Also, under setting [2], the AC50 was 23.1 µM [falling, partial curve, poor fit].

Regarding `COCCCn1c(SCc2nc3ccccc3c(=O)[nH]2)nc2ccccc2c1=O`, the cell number change worked out at 48.7%. In addition, under setting [1], the half-maximal activity concentration (AC50) is 0.651 µM [rising, full curve]. For the same compound, under setting [2], the AC50 is 2.59 µM [rising, full curve].

For `CC(C)(C)NC(=O)C1CC(=O)OC1(C)C` (centres undefined), the cell number change was -17.5%.

For `COC(=O)c1sc(-c2ccc(Cl)cc2)cc1NC(=O)/C=C/C(=O)O`, the cell number change is 6.63%. For the same compound, the half-maximal activity concentration (AC50) under setting [1] is 2.06 µM [rising, single point].

As to `O=C(O)COC(=O)Cc1ccccc1Nc1c(Cl)cccc1Cl`, the cell number change is 1.45%.

`CCOC(=O)c1c(C)[nH]c(NC(=O)NNC(=O)c2ccccc2Cl)c1C`: the cell number change amounted to 4.1%. The concentration at half-maximal activity (AC50) under setting [2] is 0.259 µM [rising, full curve, poor fit].

In the case of `Cc1cccc(C(=O)c2cccc(C)c2)c1`, the cell number change is -24.1%. For the same compound, the AC50 under setting [1] is 2.59 µM [falling, partial curve, poor fit]. The AC50 under setting [2] was 0.58 µM [falling, full curve, poor fit].

In the case of `O=c1c2c(nc3nc(NCc4cccc5ccccc45)[nH]n13)CCC2`, the cell number change was determined as 14.5%.

On to `O=C1/C(=C\c2cc([N+](=O)[O-])ccc2O)SC(=S)N1Cc1ccc(Cl)cc1`, for which the cell number change is -105%. The half-maximal activity concentration (AC50) under setting [1] was 5.17 µM [falling, full curve]. Further, the AC50 under setting [2] is 3.66 µM [falling, full curve].

Turning to `CC(C)OC(=O)c1nnc(Cc2ccc(F)cc2)o1`, under setting [2], the concentration at half-maximal activity (AC50) is 20.6 µM [rising, single point].

On to `Cc1ccc(S(=O)(=O)N2CCN(C(=O)COC(=O)CSc3ccc(C)c(C)c3)CC2)c(C)c1`, for which the cell number change is -7.63%.

For `O=C(O)CSc1ncnc2nc[nH]c12`, under setting [2], the half-maximal activity concentration (AC50) was 23.1 µM [falling, single point].

For `S=C(NCCCCNC(=S)NCc1ccccc1)NCc1ccccc1`, the cell number change amounted to 31.7%. In addition, the AC50 under setting [1] is 29.1 µM [rising, single point].

As for `CCN1C(=O)c2cccc3c(S(=O)(=O)NCc4cccnc4)ccc1c23`, the cell number change turned out to be 35.6%. Also, the concentration at half-maximal activity (AC50) under setting [1] is 2.31 µM [rising, full curve, poor fit]. For the same compound, the AC50 under setting [2] is 4.11 µM [rising, single point].

Consider `COC(=O)CNC(=O)c1cc(-c2ccncc2)nc2ccccc12`, for which, under setting [2], the AC50 was 0.58 µM [rising, single point].

Turning to `O=S(=O)(Nc1cccc2ncccc12)c1cccs1`, the AC50 was 6.51 µM [rising, single point] under setting [1] and 3.26 µM [rising, partial curve] under setting [2].

As to `Cc1ccc(-c2cc(C(=O)NCc3ccccn3)c3ccccc3n2)cc1`, the cell number change was 72%. Further, the concentration at half-maximal activity (AC50) under setting [1] was 4.61 µM [rising, full curve]. Under setting [2], the concentration at half-maximal activity (AC50) is 0.116 µM [falling, full curve, poor fit].

As to `COc1ccccc1CCNC(=O)CCn1c(=O)c2cccn2c2ccc(F)cc21`, the cell number change was -27.7%. Besides, the AC50 under setting [2] was 6.51 µM [rising, single point].

Take `C=CCNC(=O)c1ccc(Cn2cc(C(F)(F)F)ccc2=O)cc1`: the cell number change was -12.5%. Under setting [2], the AC50 was 1.16 µM [falling, single point].

`C/C(=N\N=C(N)N)c1cccc(Cl)c1`: the cell number change turned out to be 135%. Further, the AC50 under setting [1] was 29.1 µM [rising, single point].

As for `CSc1ccc(Cl)c(C(=O)NCCCn2ccnc2)c1`, the cell number change is 31.6%. Also, the concentration at half-maximal activity (AC50) under setting [1] is 23.1 µM [rising, partial curve]. Also, under setting [2], the concentration at half-maximal activity (AC50) is 29.1 µM [rising, single point].

In the case of `Cc1c(C)c2ccc(OCC(=O)NCc3ccccn3)cc2oc1=O`, the cell number change stood at 23%. The AC50 under setting [2] was 32.6 µM [falling, single point].

Take `O=C(OCc1ccc(COC(=O)c2ccc(O)cc2)cc1)c1ccc(O)cc1`: the AC50 under setting [2] is 0.651 µM [rising, single point].

Consider `Nc1cccc(C(=O)OCC(=O)Nc2cccc3c2C(=O)c2ccccc2C3=O)c1`, for which the cell number change is -64.7%. Further, the concentration at half-maximal activity (AC50) under setting [1] was 9.2 µM [falling, partial curve]. In addition, under setting [2], the half-maximal activity concentration (AC50) is 18.4 µM [falling, partial curve, poor fit].

As for `Cc1ccc(NC(=O)CN2C(=O)NC3(CCCC3)C2=O)cc1S(=O)(=O)N1CCCCC1`, the cell number change stood at 32.5%. Moreover, under setting [1], the half-maximal activity concentration (AC50) was 11.6 µM [rising, single point].

With `C/C(=N\NC(=O)c1ccco1)c1cc2ccccc2o1`, the cell number change came out at 0.549%. For the same compound, under setting [2], the AC50 was 3.66 µM [falling, single point].

Consider `COc1ccc(C2N3CC4(C)CN2CC(C)(C3)C4=O)cc1OC` (centres undefined), for which the cell number change was found to be 4.05%. The AC50 under setting [2] was 0.00461 µM [falling, full curve, poor fit].

For `CC(=O)C1=C(O)C(=O)N(C)C1c1ccccc1F` (centres undefined), the cell number change is -10.9%. The concentration at half-maximal activity (AC50) under setting [2] was 4.11 µM [falling, full curve, poor fit].

`O=c1[nH]c(NNC(=S)NCc2ccccc2)nc2c1C1(CCCCC1)Cc1ccccc1-2`: the cell number change is -27%. In addition, the AC50 under setting [2] is 23.1 µM [falling, single point].
